Results are given in words; binding and its absence hold for the method and conditions named. Some results given as binding are weak or reduced against the parent protein; the word gives no strength.
Target: endogenous IP3R1 protein (adult mouse brain) (mouse) (UniProt P11881)
Test: immunoblotting of whole lysates and crude MAM fraction of adult mouse brain (FIG. 2C legend)

The chains behind the UniProt entries cited, without tags or fusion partners.
UniProt P11881: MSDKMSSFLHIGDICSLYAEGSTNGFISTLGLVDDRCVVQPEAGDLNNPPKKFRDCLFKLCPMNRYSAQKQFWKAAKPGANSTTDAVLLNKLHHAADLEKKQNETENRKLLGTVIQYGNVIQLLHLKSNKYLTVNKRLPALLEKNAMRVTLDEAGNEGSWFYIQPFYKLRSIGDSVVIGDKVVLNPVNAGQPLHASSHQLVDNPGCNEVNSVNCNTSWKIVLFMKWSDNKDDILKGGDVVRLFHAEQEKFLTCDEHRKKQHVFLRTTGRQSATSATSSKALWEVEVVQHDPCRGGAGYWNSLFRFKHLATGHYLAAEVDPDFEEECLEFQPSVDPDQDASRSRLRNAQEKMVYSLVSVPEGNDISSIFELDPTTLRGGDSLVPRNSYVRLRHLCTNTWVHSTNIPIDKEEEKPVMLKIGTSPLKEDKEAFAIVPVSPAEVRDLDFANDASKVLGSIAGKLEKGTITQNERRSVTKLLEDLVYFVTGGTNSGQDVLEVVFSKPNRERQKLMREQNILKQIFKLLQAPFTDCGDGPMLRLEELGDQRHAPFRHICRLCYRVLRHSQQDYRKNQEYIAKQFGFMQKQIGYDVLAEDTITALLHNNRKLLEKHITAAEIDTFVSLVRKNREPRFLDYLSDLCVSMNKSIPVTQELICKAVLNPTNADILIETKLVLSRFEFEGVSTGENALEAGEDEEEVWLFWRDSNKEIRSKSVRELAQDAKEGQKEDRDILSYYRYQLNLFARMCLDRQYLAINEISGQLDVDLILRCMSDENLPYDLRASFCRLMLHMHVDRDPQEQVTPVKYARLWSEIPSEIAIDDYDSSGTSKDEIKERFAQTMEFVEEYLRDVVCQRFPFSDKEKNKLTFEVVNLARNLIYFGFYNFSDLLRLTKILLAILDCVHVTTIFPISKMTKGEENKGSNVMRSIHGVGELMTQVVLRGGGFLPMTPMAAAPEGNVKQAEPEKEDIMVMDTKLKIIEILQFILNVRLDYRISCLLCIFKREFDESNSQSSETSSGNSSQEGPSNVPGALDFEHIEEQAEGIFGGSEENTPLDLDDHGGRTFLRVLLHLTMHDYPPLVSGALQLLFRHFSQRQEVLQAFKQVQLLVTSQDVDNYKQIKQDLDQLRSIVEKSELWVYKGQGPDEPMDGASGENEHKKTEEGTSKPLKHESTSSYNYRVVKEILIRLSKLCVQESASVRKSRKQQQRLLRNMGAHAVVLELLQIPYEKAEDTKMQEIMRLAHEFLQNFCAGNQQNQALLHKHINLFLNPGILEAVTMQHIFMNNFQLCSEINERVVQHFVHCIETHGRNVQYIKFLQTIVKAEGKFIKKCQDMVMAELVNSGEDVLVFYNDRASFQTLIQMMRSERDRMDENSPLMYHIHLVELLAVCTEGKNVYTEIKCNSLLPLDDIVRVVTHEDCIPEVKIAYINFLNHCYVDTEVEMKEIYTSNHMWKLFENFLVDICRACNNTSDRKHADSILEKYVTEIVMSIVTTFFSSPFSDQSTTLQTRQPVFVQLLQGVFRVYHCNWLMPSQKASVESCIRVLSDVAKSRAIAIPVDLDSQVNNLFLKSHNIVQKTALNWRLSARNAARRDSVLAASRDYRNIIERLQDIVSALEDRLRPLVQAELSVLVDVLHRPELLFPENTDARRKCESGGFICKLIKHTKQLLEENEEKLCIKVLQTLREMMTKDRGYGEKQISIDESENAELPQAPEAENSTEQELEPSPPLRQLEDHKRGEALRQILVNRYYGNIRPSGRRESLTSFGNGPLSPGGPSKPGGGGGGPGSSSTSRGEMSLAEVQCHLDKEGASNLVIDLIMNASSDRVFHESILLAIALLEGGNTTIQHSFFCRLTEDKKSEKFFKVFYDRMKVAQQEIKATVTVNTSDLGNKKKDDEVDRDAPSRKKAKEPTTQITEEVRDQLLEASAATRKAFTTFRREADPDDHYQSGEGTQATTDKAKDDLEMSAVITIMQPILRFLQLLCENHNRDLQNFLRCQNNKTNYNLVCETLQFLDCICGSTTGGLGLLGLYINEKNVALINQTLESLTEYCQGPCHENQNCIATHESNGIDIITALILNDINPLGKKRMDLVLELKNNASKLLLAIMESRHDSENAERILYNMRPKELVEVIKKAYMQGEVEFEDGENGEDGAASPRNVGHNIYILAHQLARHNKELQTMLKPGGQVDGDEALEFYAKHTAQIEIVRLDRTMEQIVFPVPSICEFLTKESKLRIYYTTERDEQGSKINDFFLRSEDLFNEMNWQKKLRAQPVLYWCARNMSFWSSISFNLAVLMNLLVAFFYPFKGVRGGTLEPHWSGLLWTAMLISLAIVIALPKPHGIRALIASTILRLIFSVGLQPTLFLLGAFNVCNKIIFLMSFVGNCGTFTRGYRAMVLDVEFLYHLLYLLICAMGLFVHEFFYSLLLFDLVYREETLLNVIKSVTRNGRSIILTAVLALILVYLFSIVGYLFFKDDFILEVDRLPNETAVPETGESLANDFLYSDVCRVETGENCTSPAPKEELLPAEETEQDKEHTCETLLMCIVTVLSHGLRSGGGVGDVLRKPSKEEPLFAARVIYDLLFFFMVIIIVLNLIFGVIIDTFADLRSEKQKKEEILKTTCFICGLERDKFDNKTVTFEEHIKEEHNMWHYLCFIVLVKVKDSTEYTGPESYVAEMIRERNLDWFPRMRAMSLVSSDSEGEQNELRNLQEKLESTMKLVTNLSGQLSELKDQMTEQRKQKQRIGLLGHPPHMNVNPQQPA

B1: endogenous DISC1 protein (adult mouse brain) (protein, UniProt Q811T9 1-852, looked up)
chain: MQGGGPRGAPIHSPSHGADSGHGLPPAVAPQRRRLTRRPGYMRSTAGSGIGFLSPAVGMPHPSSAGLTGQQSQHSQSKAGQCGLDPGSHCQASLVGKPFLKSSLVPAVASEGHLHPAQRSMRKRPVHFAVHSKNDSRQSERLTGSFKPGDSGFWQELLSSDSFKSLAPSLDAPWNKGSRGLKTVKPLASPALNGPADIASLPGFQDTFTSSFSFIQLSLGAAGERGEAEGCLPSREAEPLHQRPQEMAAEASSSDRPHGDPRHLWTFSLHAAPGLADLAQVTRSSSRQSECGTVSSSSSDTGFSSQDASSAGGRGDQGGGWADAHGWHTLLREWEPMLQDYLLSNRRQLEVTSLILKLQKCQEKVVEDGDYDTAETLRQRLEELEQEKGRLSWALPSQQPALRSFLGYLAAQIQVALHGATQRAGSDDPEAPLEGQLRTTAQDSLPASITRRDWLIREKQRLQKEIEALQARMSALEAKEKRLSQELEEQEVLLRWPGCDLMALVAQMSPGQLQEVSKALGETLTSANQAPFQVEPPETLRSLRERTKSLNLAVRELTAQVCSGEKLCSSLRRRLSDLDTRLPALLEAKMLALSGSCFSTAKELTEEIWALSSEREGLEMFLGRLLALSSRNSRRLGIVKEDHLRCRQDLALQDAAHKTRMKANTVKCMEVLEGQLSSCRCPLLGRVWKADLETCQLLMQSLQLQEAGSSPHAEDEEQVHSTGEAAQTAALAVPRTPHPEEEKSPLQVLQEWDTHSALSPHCAAGPWKEDSHIVSAEVGEKCEAIGVKLLHLEDQLLGAMYSHDEALFQSLQGELQTVKETLQAMILQLQPTKEAGEASASYPTAGAQETEA
- binding: binds

— patent US20190167761A1, “PHARMACEUTICAL COMPOSITION FOR PREVENTING OR TREATING STRESS-RELATED DISEASE, INCLUDING DISC1 PROTEIN OR GENE ENCODING THE SAME” (POSTECH ACADEMY-INDUSTRY FOUNDATION, priority 2017, published 2019)
